From publication PMC7819943, “Rice protein-binding microarrays: a tool to detect cis-acting elements near promoter regions in rice”
Some of the results follow.

Molecular target: T1, OsSMF1 (Oryza sativa, UniProt Q6ZLB0 1-436)
T1 sequence: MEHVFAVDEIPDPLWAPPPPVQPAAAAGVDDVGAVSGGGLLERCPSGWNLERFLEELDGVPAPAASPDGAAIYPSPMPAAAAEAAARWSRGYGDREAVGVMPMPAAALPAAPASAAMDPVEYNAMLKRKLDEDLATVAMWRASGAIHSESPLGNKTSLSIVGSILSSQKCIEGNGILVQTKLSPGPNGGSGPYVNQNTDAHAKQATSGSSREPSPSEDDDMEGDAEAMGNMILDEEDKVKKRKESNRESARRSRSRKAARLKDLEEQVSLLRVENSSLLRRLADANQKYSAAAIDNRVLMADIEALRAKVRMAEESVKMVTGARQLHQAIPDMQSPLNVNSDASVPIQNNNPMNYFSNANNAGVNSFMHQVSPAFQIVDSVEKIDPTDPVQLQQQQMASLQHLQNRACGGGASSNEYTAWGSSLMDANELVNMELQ
Assay: protein-binding microarray (RPBM); PBS, 2% BSA, 51.3 ng/ul salmon testes DNA, 50 uM zinc acetate, 200 nM TF, 25 C, 1 h; high values mean tight binding
Conditions: protein: recombinant; tags: N-terminal polyhistidine and DsRed monomer fusion (pET32a); chain copies: 2; label: CyDye5-dUTP incorporated in the synthesized complementary strand; 3' TTTTT single-stranded linker to array surface; dsDNA, one strand shown
Method in brief: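 Per-feature fluorescence intensity (arbitrary units), read on an Axon 4000B scanner, is the binding signal. Transcription factors carrying an N-terminal polyhistidine tag and DsRed fusion were expressed in E. coli BL21-CodonPlus and purified on Ni–NTA. A custom Agilent array, made double-stranded by primer extension with Cy5-dUTP and blocked with 2% BSA, was incubated with 200 nM protein in PBS, 2% BSA, salmon testes DNA and 50 µM zinc acetate at 25 °C for 1 h and then washed.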

| Sequence | binding signal |
| --- | --- |
| GATGGACCAATTTGATTGTTGTTGGATTCTACGATGCATGCGGAGTCACCTAGTGCAG | 3780 fluorescence intensity (a.u.) |
| TGTGCTCGCGGGTGTGTGTGACGTGCGCGTGTAGTGGTGTCGGAGTCACCTAGTGCAG | 7370 fluorescence intensity (a.u.) |
| TTCGCGCGCCCCTCTCGCCCTTCGCTATCGCTACACACCACGGAGTCACCTAGTGCAG | 3890 fluorescence intensity (a.u.) |
| TCACTAAAACAATAATTAGCCGTAAATACGAGCACGCGTGCGGAGTCACCTAGTGCAG | 3460 fluorescence intensity (a.u.) |
| TTCATATTTATTTGATGACGTGGCTAATCCTGGTCGGATCCGGAGTCACCTAGTGCAG | 40700 fluorescence intensity (a.u.) |
| TCTGCCAGAAGCTGACGATGATGTGTGTGTTATTATGGTCCGGAGTCACCTAGTGCAG | 5620 fluorescence intensity (a.u.) |
| AAGTCAAACATTTGGCGCCAAATTGAAAATCCCTTTCTACCGGAGTCACCTAGTGCAG | 3500 fluorescence intensity (a.u.) |
| TGCTACTTCGCTTGCAGCGTGCGTGTCGGCTAGACCGTCCCGGAGTCACCTAGTGCAG | 4640 fluorescence intensity (a.u.) |
| GCGGCCCAATGAGTTGGGCCGGGACGGCCACGTGGCGGCACGGAGTCACCTAGTGCAG | 22300 fluorescence intensity (a.u.) |
| TAAATAATTGCCATTGCCATGCTGCCACGTGTCATGGGACCGGAGTCACCTAGTGCAG | 49900 fluorescence intensity (a.u.) |
| CCACCAAACCCGACCCGCCCGCGTCGCGACCACACCCGCCCGGAGTCACCTAGTGCAG | 3280 fluorescence intensity (a.u.) |
| GTATACCACTGCCGTCAGCAACAGTTGTGTGGAATTGCAGCGGAGTCACCTAGTGCAG | 5300 fluorescence intensity (a.u.) |
| ATAAGTGTAGCCATAAGTTTCCGCGTCCAACTTTGATCGTCGGAGTCACCTAGTGCAG | 3510 fluorescence intensity (a.u.) |
| TCCTCTCCTCTCGAGCTCACCTATTATTGGTCCATTCTAGCGGAGTCACCTAGTGCAG | 3140 fluorescence intensity (a.u.) |
| TCAACACACGTCAATTACAACTATGGGCTTTTGATCGAGACGGAGTCACCTAGTGCAG | 3620 fluorescence intensity (a.u.) |
| AACTTATCCTCCGTAATTTGGTAACGTGTTAACACTCAAGCGGAGTCACCTAGTGCAG | 25300 fluorescence intensity (a.u.) |
| ATTAAGATGCCATTCATGACTAGATGTTCTCTGTCAGATGCGGAGTCACCTAGTGCAG | 3780 fluorescence intensity (a.u.) |
| GATGTGACGTGATGTGATGGAAAGTTGGGAGTTGGGGAAACGGAGTCACCTAGTGCAG | 6040 fluorescence intensity (a.u.) |
| ACCTCCGTGCGTGCGGCCTCTGCAACGGCGGGCGTCGCCACGGAGTCACCTAGTGCAG | 3250 fluorescence intensity (a.u.) |
| GCCTTCAGCACCTCGTACGTGACACCGTACGTGCACCTCTCGGAGTCACCTAGTGCAG | 3280 fluorescence intensity (a.u.) |
| TCCTCTCGCCATCGAGTCCGACACGTCCACATCGCCATTACGGAGTCACCTAGTGCAG | 6100 fluorescence intensity (a.u.) |

| Sequence | binding signal |
| --- | --- |
| TTTGATCACATCTTACACTGCCGGGTGGGGTCAGCATCTGCGGAGTCACCTAGTGCAG | 3300 fluorescence intensity (a.u.) |
| TTTCATCCCCATTATATTCTTCTAGCATGACTCATTTGCACGGAGTCACCTAGTGCAG | 7400 fluorescence intensity (a.u.) |
| GCCTCGAGGGATGAAATTCCACATCCCTATATTCACATGTCGGAGTCACCTAGTGCAG | 3440 fluorescence intensity (a.u.) |
| ACCAAGAGGATTACCTGTGTAGGTGTTGTGTGCTGTGGAACGGAGTCACCTAGTGCAG | 11000 fluorescence intensity (a.u.) |
| CATGTGAGTATTGTGTGATGACATAATACGGAGTTGCAGCCGGAGTCACCTAGTGCAG | 5080 fluorescence intensity (a.u.) |
| CCCCGCCGACGCCGATGCCGACGCCGCCGCCGCCTCCCCACGGAGTCACCTAGTGCAG | 3240 fluorescence intensity (a.u.) |
| CGCGTCTGCATACAGGTCATCCATCTCTCTCACTCTGCCTCGGAGTCACCTAGTGCAG | 4340 fluorescence intensity (a.u.) |
| GTCAGTCAAGGTATTGCAGAGGATACTTCTGACTTGGTATCGGAGTCACCTAGTGCAG | 3740 fluorescence intensity (a.u.) |
| CGCATGTGTCATCCGCGTCGGTCTCGTTCCTCTCCTTCCTCGGAGTCACCTAGTGCAG | 5150 fluorescence intensity (a.u.) |
| CTGATGATGATGGCAGTGACGATTGCTAACACCCTGGTGCCGGAGTCACCTAGTGCAG | 20800 fluorescence intensity (a.u.) |
| GTTGCGTACTTGCGTCATTGCGCCAGGTGAAAGTGAACGACGGAGTCACCTAGTGCAG | 3230 fluorescence intensity (a.u.) |
| CCGGTGACGTGTATCCGCCGTGTCAGCCTCGTCCGGCTTCCGGAGTCACCTAGTGCAG | 15900 fluorescence intensity (a.u.) |
| AAACAGCGGCTGCTGACGTCTCCGCAAACAATAGATCCGTCGGAGTCACCTAGTGCAG | 8360 fluorescence intensity (a.u.) |
| GCTCTCGCGTCAGGGGCATACGTGTCCAAACTAAACCCCGCGGAGTCACCTAGTGCAG | 14500 fluorescence intensity (a.u.) |
| TCGTACGCGGCCAGATCGTCGGCGGTCGGGGCGTCACCGTCGGAGTCACCTAGTGCAG | 3210 fluorescence intensity (a.u.) |
| GAACATCATCATCCACGAAAATGTCGTCACATGCATACATCGGAGTCACCTAGTGCAG | 4100 fluorescence intensity (a.u.) |
| GAACTCCTACGTCGTGGCCTCGCTGAATGGCTTAATGCCACGGAGTCACCTAGTGCAG | 3340 fluorescence intensity (a.u.) |
| CTTGTGTCCTGATAATACGACTCCTCGTGCCATCCCAGGACGGAGTCACCTAGTGCAG | 7900 fluorescence intensity (a.u.) |
| GCCCGAGCTCGACGACGGCAGCGGGGCGGTGGGGCGAGCTCGGAGTCACCTAGTGCAG | 4040 fluorescence intensity (a.u.) |
| GCTGTCGTACTACTCCCTCCCGCTTCTCACGCCGTCAGCGCGGAGTCACCTAGTGCAG | 4060 fluorescence intensity (a.u.) |
| AAACTGACTGGCCAGTCTCCAACTGGTGATACTCTGCTCTCGGAGTCACCTAGTGCAG | 3550 fluorescence intensity (a.u.) |
